Test results published in patent US20210315826A1, “NATURAL FLUORESCENT POLYDEDRAL AMINO ACID CRYSTALS FOR EFFICIENT ENTRAPMENT AND SYSTEMIC DELIVERY OF HYDROPHOBIC SMALL MOLECULES” (CORNELL UNIVERSITY, priority 2018, published 2021).

Tests used:
[1] = Microscopy (optical, SEM, CLSM) observation of entrapment inside L-His crystals; assay type: physicochemical; settings: SEM and CLSM, crystals collected after 3 hours
[2] = Fluorescence lifetime of amino acid crystals (TCSPC); assay type: physicochemical; settings: for a1 (%) / a2 (%) / τ1 (ns) / τ2 (ns): bi-exponential fit, crystals at room temperature; for Mean lifetime (ns): weighed mean lifetime of crystals, ((a1×τ1)+(a2×τ2))/(a1+a2)

In the case of `CC(/C=C/C=C(C)/C=C/C(=O)O)=C\C=C\C=C(C)\C=C\C=C(C)\C=C\C(=O)O` (stereo in doubt) [norbixin], the “Entrapment inside the L-His crystals observed by microscopy” value [1] is reported as “not observed entrapped inside the L-His crystals”.

With `NC(=O)C[C@H](N)C(=O)O` [L-Asparagine, L-asparagine] the “a1 (%)” value [2] was 87.39%, the “a2 (%)” value [2] was 12.61% and the “τ1 (ns)” value [2] was 0.9 ns. The “τ2 (ns)” value [2] was 36.40 ns and the “Mean lifetime (ns)” value [2] was 5.38 ns.

With `NC(=O)CC[C@H](N)C(=O)O` [L-Glutamine, L-glutamine] the “a1 (%)” value [2] was 77.93%, the “a2 (%)” value [2] was 22.06% and the “τ1 (ns)” value [2] was 0.85 ns. The “τ2 (ns)” value [2] was 8.49 ns and the “Mean lifetime (ns)” value [2] was 2.53 ns.

For `N[C@@H](Cc1c[nH]cn1)C(=O)O` [L-Histidine, L-histidine], the “a1 (%)” value [2] was 56.51%, the “a2 (%)” value [2] was 43.48% and the “τ1 (ns)” value [2] was 0.67 ns. For the same compound, the “τ2 (ns)” value [2] was 4.19 ns and the “Mean lifetime (ns)” value [2] was 2.20 ns.

In the case of `CC[C@H](C)[C@H](N)C(=O)O` [L-Isoleucine, L-isoleucine], the “a1 (%)” value [2] is reported as 59.75%, the “a2 (%)” value [2] is reported as 40.25% and the “τ1 (ns)” value [2] is reported as 0.79 ns. The “τ2 (ns)” value [2] was 5.69 ns and the “Mean lifetime (ns)” value [2] was 2.76 ns.

In the case of `CSCC[C@H](N)C(=O)O` [L-Methionine, L-methionine], the “a1 (%)” value [2] is reported as 66.54%, the “a2 (%)” value [2] is reported as 33.46% and the “τ1 (ns)” value [2] is reported as 1.25 ns. For the same compound, the “τ2 (ns)” value [2] was 9.19 ns and the “Mean lifetime (ns)” value [2] was 3.91 ns.

With `C[C@@H](O)[C@H](N)C(=O)O` [L-Threonine, L-threonine] the “a1 (%)” value [2] was 61.02%, the “a2 (%)” value [2] was 21.07% and the “τ1 (ns)” value [2] was 1.31 ns. The “τ2 (ns)” value [2] was 19.46 ns and the “Mean lifetime (ns)” value [2] was 4.90 ns.

With `CC(C)[C@H](N)C(=O)O` [L-Valine, L-valine] the “a1 (%)” value [2] was 9.57%, the “a2 (%)” value [2] was 90.42% and the “τ1 (ns)” value [2] was 5.02 ns. For the same compound, the “τ2 (ns)” value [2] was 6.68 ns and the “Mean lifetime (ns)” value [2] was 6.52 ns.

For `CCN(CC)c1ccc2nc3c4ccccc4c(=O)cc-3oc2c1` [Nile red], the “Entrapment inside the L-His crystals observed by microscopy” value [1] was “observed inside the crystals”.

For `c1cc2ccc3cccc4ccc(c1)c2c34` [pyrene], the “Entrapment inside the L-His crystals observed by microscopy” value [1] was “observed inside the crystals”.

With `CC1=C(/C=C/C(C)=C/C=C/C(C)=C/C=C/C=C(C)/C=C/C=C(C)/C=C/C2=C(C)CCCC2(C)C)C(C)(C)CCC1` [β-carotene] the “Entrapment inside the L-His crystals observed by microscopy” value [1] was “observed inside the crystals”.

With fluorescein isothiocyanate [FITC] the “Entrapment inside the L-His crystals observed by microscopy” value [1] was “not observed entrapped inside the L-His crystals”.

Some entries repeat one wording, which the source may state once for all of them.
